The series in a line: Boc solid-phase peptide synthesis; p-methyl BHA resin; HOBt/DCC. As to conditions: whole synthesis.

Where no end group is shown, it is not given here.

Consider MPHSFANLPLRF-NH2, for which, for the setting “scale 0.25 g resin”, the isolated mass was found to be 26 mg. For the setting “scale 0.23 g resin”, SAGATANLPRS-NH2 returned an isolated mass of 71 mg.

For the origin of these results see EP1262190A1 (Takeda Chemical Industries, Ltd., priority 2000, dated 2001).
